Source: patent publication US20100280227A1
These are yes or no findings as the source states them, for the method shown. Some binding calls cover weakened binding; strength is not graded here.

Sequences of proteins named here, by UniProt entry; tags and fusion partners are left off. Residues count along the entry.
UniProt Q9WU72, residues 127-309: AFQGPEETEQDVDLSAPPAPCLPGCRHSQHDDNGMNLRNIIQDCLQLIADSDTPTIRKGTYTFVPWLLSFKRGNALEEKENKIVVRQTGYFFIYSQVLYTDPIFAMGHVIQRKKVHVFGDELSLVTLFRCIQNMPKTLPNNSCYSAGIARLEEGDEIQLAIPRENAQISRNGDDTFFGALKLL

Target: mouse BR3-Fc (mouse)
Experiment: ELISA: mBAFF-Flag titrated on coated mBR3-Fc, then F(ab)'2 phage #3 (V3) added and detected

binding: binds
Substance: mBAFF-Flag protein (from UniProt Q9WU72 127-309) (ligand)
